Laboratory results reported in US20050130265A1.
These are yes or no findings as the source states them, for the method shown. For some assays here: Binding seen in cells or lysates may run through a third protein. Some results given as binding are weak or reduced against the parent protein; the word gives no strength.

Protein sequences, listed by entry. Tags and fused reporters are not part of them. Lines headed by an entry give the natural chain unless they say otherwise; changes in a name come on top.
UniProt O08900: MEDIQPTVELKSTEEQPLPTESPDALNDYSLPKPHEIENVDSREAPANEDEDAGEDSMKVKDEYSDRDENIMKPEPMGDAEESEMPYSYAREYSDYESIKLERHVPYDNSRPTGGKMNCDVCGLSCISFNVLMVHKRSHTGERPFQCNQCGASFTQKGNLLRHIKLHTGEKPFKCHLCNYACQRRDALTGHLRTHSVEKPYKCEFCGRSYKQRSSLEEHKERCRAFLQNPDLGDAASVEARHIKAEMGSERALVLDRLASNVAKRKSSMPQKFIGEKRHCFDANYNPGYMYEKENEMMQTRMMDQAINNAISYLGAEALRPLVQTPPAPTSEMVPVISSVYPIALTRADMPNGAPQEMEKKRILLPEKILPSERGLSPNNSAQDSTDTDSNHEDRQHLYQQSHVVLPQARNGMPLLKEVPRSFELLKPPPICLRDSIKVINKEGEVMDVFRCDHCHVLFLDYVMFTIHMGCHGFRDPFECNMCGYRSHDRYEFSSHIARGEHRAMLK
UniProt P81183: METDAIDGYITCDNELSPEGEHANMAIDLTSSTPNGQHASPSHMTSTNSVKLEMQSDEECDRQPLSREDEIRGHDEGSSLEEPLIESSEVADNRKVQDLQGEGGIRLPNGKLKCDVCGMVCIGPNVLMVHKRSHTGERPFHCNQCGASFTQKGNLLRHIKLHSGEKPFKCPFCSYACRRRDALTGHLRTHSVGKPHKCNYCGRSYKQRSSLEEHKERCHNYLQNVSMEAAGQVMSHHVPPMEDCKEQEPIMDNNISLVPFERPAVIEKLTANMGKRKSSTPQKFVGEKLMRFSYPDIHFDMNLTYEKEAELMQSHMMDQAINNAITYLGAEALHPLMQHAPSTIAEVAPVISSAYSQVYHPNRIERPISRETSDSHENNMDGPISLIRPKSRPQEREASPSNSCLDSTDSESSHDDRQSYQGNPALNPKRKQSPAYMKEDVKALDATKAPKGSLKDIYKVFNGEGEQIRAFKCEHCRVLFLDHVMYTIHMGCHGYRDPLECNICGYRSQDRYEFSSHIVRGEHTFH

Experiments:
[1] = molecular target: Aiolos-(FLAG) protein (mouse) (UniProt O08900); assay: co-immunoprecipitation from transfected 293T cells, anti-FLAG IP, Helios Western
FLAG-Hel-1 (mouse) = FLAG-Hel-1 (mouse) (UniProt P81183); assay: as above
[2] = molecular target: Aio-500 bait (C-terminal 149 amino acids of Aiolos fused in frame to the LexA DNA binding domain in pLex202) (mouse); assay: yeast two-hybrid, B42 prey against LexA bait, rate of blue colour on X-gal plates
[3] = molecular target: Aio-500 bait (C-terminal 149 amino acids of Aiolos fused in frame to the LexA DNA binding domain in pLex202) (mouse); assay: yeast two-hybrid

Substance	binding [1]	binding (FLAG-Hel-1 (mouse))	binding [2]	binding [3]
Helios isoform Hel-1 (from UniProt P81183 1-526)	binds			
Helios isoform Hel-2 (from UniProt P81183 1-526)	binds	binds		
full length Aiolos prey (B42 transcriptional activation domain fused in frame to full length Aiolos) (from UniProt O08900 1-507)			binds	binds
